Results taken from patent US20240026295A1, “USE OF COMPOUND FOR IMPROVING TRANSPLANTATION EFFICIENCY OF HUMAN HEMATOPOIETIC STEM CELLS” (EDIGENE (GUANGZHOU) INC., priority 2020, published 2024).
Structures can show the parent of a compound that is named as a salt. For part of these data: At least one structure is not confirmed: it was looked up by name or label, or the drawing left a doubt. Some of these results come from one statement about several compounds together.

Legend:
[1] = system: surface protein CD184 expression in CD34+HSPCs; assay: Secondary screening: CD184 mean fluorescence intensity, ratio to control group; type: cell-based, human; settings: high concentration, 16 hours treatment, FIG. 2
Description: (§1) According to the counting results in Example 1, 5×10^4CD34+ cells were added to each well of a 24-well plate, and the cells were cultured with 1 ml of complete medium per well for 24 hours.
(§2) The next day, the compound was dissolved in DMSO and mixed, and then diluted with PBS to a specific concentration (see Table 3). An equal volume of 10 μl of the diluted compound per well was added to the cell culture medium, mixed well, and placed in an incubator for 16 hours. […]
(§3) Cells were collected into centrifuge tubes, centrifuged at 400 g for 5 minutes. […] Flow cytometry (Beckman Coulter CytoFLEX) was used to detect cell surface fluorescence, and the mean fluorescence intensity (MFI) and positive ratio of CD184 expression in HSPCs and LT-HSCs were analyzed, respectively. […]
(2) Secondary screening of compounds: the 13 compounds obtained from the preliminary screening were further verified using three concentrations of high, medium and low, with three replicates for each concentration. After 16 hours of treatment with the above-mentioned compounds, the average fluorescence intensity of surface protein CD184 expression was detected by flow cytometry. […] Wherein, the data in the figure are the ratio of the mean CD184 fluorescence intensity of each group to the control group (Mock). […]

[2] = system: surface protein CD184 expression in CD34+HSPCs; assay: Preliminary screening: CD184 mean fluorescence intensity by flow cytometry; type: cell-based, human; settings: 16 hours treatment, three concentrations
Description: as §1, §2, §3
(1) Preliminary screening of compounds: 139 compounds were used for preliminary screening, among which 89 compounds were screened in rounds 1-5, and 50 compounds were screened in rounds 6-9. […] Then the mean fluorescence intensity of surface protein CD184 expression was detected by flow cytometry. […]

SMILES | expression of CD184 relative to negative control (Mock) [1] | expression of CD184 in CD34+HSPCs (mean fluorescence intensity) [2]
CC[C@]1(O)C[C@@H]2CN(CCc3c([nH]c4ccccc34)[C@@](C(=O)OC)(c3cc4c(cc3OC)N(C)[C@H]3[C@@](O)(C(=O)OC)[C@H](OC(C)=O)[C@]5(CC)C=CCN6CC[C@]43[C@@H]65)C2)C1 [Vinblastine sulfate] | more than 4 times | 
CC(=O)Nc1cccc(-n2c(=O)n(C3CC3)c(=O)c3c(Nc4ccc(I)cc4F)n(C)c(=O)c(C)c32)c1 [Trametinib] |  | can enhance the expression of CD184
CCC[C@H](Nc1nc(-c2ccc(NC(=O)NCC)c(OC)c2)ncc1C)c1cccnc1 [Lexibulin] | more than 4 times | 
